Results: PMC3678999, “A Structural Basis for IκB Kinase 2 Activation Via Oligomerization-Dependent Trans Auto-Phosphorylation” (PLoS Biology, 2013)
No constants are given. Whether binding was seen depends on the method and setting. Some entries that bind do so weakly or less than the wild type.

Amino acid sequences for entries named in this document (tags omitted).
UniProt O88522: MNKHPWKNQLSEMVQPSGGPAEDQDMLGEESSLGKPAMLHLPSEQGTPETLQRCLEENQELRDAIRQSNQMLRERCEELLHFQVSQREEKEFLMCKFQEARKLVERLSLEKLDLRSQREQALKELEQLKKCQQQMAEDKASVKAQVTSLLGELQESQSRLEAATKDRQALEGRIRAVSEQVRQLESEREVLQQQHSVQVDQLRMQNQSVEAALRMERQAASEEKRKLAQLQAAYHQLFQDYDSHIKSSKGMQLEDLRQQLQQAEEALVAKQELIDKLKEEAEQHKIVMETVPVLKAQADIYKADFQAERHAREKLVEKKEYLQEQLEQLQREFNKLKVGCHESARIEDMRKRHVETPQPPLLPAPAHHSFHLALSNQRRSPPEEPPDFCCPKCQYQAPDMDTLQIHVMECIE

Molecular target: T1, endogenous IKK2 of MEF-3T3 cells (mouse (endogenous in MEF-3T3)) (UniProt O88351)
T1 sequence: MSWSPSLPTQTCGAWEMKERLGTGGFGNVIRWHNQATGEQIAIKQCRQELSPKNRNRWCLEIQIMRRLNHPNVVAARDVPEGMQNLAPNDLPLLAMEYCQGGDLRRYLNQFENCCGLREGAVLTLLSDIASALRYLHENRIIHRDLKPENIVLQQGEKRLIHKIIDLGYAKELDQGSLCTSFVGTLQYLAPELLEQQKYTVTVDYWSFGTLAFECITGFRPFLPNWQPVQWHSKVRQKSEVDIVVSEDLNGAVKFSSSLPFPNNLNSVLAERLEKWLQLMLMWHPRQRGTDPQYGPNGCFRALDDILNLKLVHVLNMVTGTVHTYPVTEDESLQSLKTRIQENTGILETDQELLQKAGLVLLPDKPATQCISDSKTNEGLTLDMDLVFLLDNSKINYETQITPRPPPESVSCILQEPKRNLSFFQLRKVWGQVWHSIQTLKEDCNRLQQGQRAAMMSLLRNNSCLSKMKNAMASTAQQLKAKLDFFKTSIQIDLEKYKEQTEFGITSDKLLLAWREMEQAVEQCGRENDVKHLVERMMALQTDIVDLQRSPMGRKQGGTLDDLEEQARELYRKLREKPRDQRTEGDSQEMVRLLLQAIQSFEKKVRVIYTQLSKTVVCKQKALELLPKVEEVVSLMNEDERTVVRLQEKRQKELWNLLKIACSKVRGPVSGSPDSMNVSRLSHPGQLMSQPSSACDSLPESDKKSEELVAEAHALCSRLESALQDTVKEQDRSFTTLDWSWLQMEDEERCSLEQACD
Test: SEC; cytosolic extracts of MEF-3T3 cells, untreated or treated with 10 ng/mL TNF for 10 min, on Superose 6; fractions blotted with anti-IKK2 and anti-NEMO; 25 mM Tris pH 7.5, 150 mM NaCl, 5% glycerol, 2 mM DTT

- binding: binds
Substance: endogenous NEMO of MEF-3T3 cells (from UniProt O88522 1-412)
